# Reference: patent US12060400B2, “Peptides for use in immunotherapy against cancers” (Immatics Biotechnologies GmbH, priority 2018, dated 2024)
# System: HLA molecules of primary tumor and normal tissue samples (cancer entities)
# Test: Identification and label-free LC-MS quantitation of HLA-presented tumor-associated peptides on tissue samples
# Parameters: species or system human
# Details: LC-MS of HLA ligands isolated from tumor tissue samples; cancer entities on which the peptide was presented
row,Substance,Peptide Presentation on cancer entities
1,SEQ ID No. 3: peptide found in TRPM8 (gene looked up) (KFLTHDVLTELF; listed as Homo sapiens),prostate cancer (PRCA)
2,SEQ ID No. 20: peptide found in CYP4Z1 (gene looked up) (ELMAHPFLL; listed as Homo sapiens),ovarian cancer (OC) and pancreatic cancer (PACA)

# Same assay, conditions: cancer entities on whose tumor tissue samples the HLA-presented peptide was found (LC-MS); abbreviations in the footnotes of Table 8a
row,Substance,Peptide Presentation on cancer entities
1,363 (QYGFNYNKF; listed as Homo sapiens) [compound 363],"GC, NSCLCsquam"
2,6 (IVTFMNKTLGTF; listed as Homo sapiens) [compound 6],NSCLCadeno
3,376 (KYVGEVFNI; listed as Homo sapiens) [compound 376],"AML, CLL, HCC, NHL, NSCLCadeno, NSCLCsquam, RCC"
4,151 (RRLWAYVTI; listed as Homo sapiens) [compound 151],MEL
5,77 (LYGFFFKI; listed as Homo sapiens) [compound 77],"GC, HCC, UBC"
6,322 (SFISPRYSWLF; listed as Homo sapiens) [compound 322],"AML, CRC, NSCLCadeno, NSCLCsquam, UBC"
7,186 (RRVTWNVLF; listed as Homo sapiens) [compound 186],NSCLCsquam
8,172 (RYFIAAEKILW; listed as Homo sapiens) [compound 172],HNSCC
9,129 (IYVSLAHVL; listed as Homo sapiens) [compound 129],"GC, NSCLCother, NSCLCsquam, PRCA"
10,61 (RIFTARLYF; listed as Homo sapiens) [compound 61],NHL
11,105 (ITPATALLL; listed as Homo sapiens) [compound 105],NHL
12,110 (VYSNPDLFW; listed as Homo sapiens) [compound 110],NSCLCadeno
13,70 (RYTGQWSEW; listed as Homo sapiens) [compound 70],UBC
14,242 (SYTPLLSYI; listed as Homo sapiens) [compound 242],MEL
15,383 (PYFSPSASF; listed as Homo sapiens) [compound 383],"NSCLCadeno, NSCLCother, UBC"
16,143 (KTKRWLWDF; listed as Homo sapiens) [compound 143],"NSCLCadeno, NSCLCsquam"
17,169 (MYDLHHLYL; listed as Homo sapiens) [compound 169],NSCLCsquam
18,109 (AQHSLTQLF; listed as Homo sapiens) [compound 109],GBM
19,167 (LQPPWTTVF; listed as Homo sapiens) [compound 167],"GC, MEL, NSCLCadeno, NSCLCsquam"
20,328 (IYLVGGYSW; listed as Homo sapiens) [compound 328],CLL
21,345 (RYLEEHTEF; listed as Homo sapiens) [compound 345],"GBC, NSCLCadeno, OC, UEC"
22,43 (KYKDHFTEI; listed as Homo sapiens) [compound 43],"BRCA, GBC, NHL, NSCLCadeno, NSCLCsquam"
23,36 (VYLASVAAF; listed as Homo sapiens) [compound 36],PRCA
24,195 (IYNEHGIQQI; listed as Homo sapiens) [compound 195],"GBM, NSCLCadeno, NSCLCsquam"
25,205 (ISWEVVHTVF; listed as Homo sapiens) [compound 205],PACA

row,Substance,Peptide Presentation on cancer entities
1,351 (GYFGTASLF; listed as Homo sapiens) [compound 351],"NSCLCadeno, NSCLCother"
2,197 (YYHSGENLY; listed as Homo sapiens) [compound 197],"GC, NSCLCadeno"
3,68 (VYKEDLPQL; listed as Homo sapiens) [compound 68],"CLL, NSCLCsquam"
4,375 (YYAADQWVF; listed as Homo sapiens) [compound 375],"AML, GBC, GC, HCC, NHL, NSCLCadeno, NSCLCother, NSCLCsquam, OSCAR, PACA"
5,357 (RALLPSPLF; listed as Homo sapiens) [compound 357],"MEL, NHL"
6,164 (MFQEMLQRL; listed as Homo sapiens) [compound 164],MEL
7,212 (VYFVQYKIM; listed as Homo sapiens) [compound 212],UBC
8,217 (QRYGFSSVGF; listed as Homo sapiens) [compound 217],HCC
9,88 (TYVPSTFLV; listed as Homo sapiens) [compound 88],"CCC, GBM, GC, NSCLCsquam, OSCAR, PACA"
10,54 (SYQEAIQQL; listed as Homo sapiens) [compound 54],PRCA
11,354 (QYIPTFHVY; listed as Homo sapiens) [compound 354],"BRCA, GBM, HCC, HNSCC, NSCLCsquam, OSCAR"
12,42 (VYDSIWCNM; listed as Homo sapiens) [compound 42],UEC
13,189 (FYPDEDDFYF; listed as Homo sapiens) [compound 189],NSCLCother
14,4 (MVLQPQPQLF; listed as Homo sapiens) [compound 4],NSCLCadeno
15,113 (ALMSAFYTF; listed as Homo sapiens) [compound 113],NSCLCsquam
16,367 (HWSHITHLF; listed as Homo sapiens) [compound 367],"CCC, CRC, GBM, GC, MEL"
17,51 (YFDENIQKF; listed as Homo sapiens) [compound 51],"NSCLCsquam, OSCAR"
18,33 (FYQPDLKYLSF; listed as Homo sapiens) [compound 33],NHL
19,317 (DWIWRILFLV; listed as Homo sapiens) [compound 317],GBM
20,207 (IYKFIMDRF; listed as Homo sapiens) [compound 207],"AML, GBC, GC, HCC, NSCLCadeno, NSCLCother, NSCLCsquam, OSCAR, PRCA, UBC"
21,84 (YTIERYFTL; listed as Homo sapiens) [compound 84],"GC, NSCLCsquam, UEC"
22,264 (AYAIPSASLSW; listed as Homo sapiens) [compound 264],HCC
23,360 (LYITKVTTI; listed as Homo sapiens) [compound 360],NSCLCadeno
24,304 (YFGNPQKF; listed as Homo sapiens) [compound 304],"GC, PACA"
25,340 (FPPTPPLF; listed as Homo sapiens) [compound 340],AML

row,Substance,Peptide Presentation on cancer entities
1,1 (IFPKTGLLII; listed as Homo sapiens) [compound 1],"NSOLCadeno, NSCLCsquam, OSCAR"
2,115 (IMQGFIRAF; listed as Homo sapiens) [compound 115],NSCLCadeno
3,200 (LYMSVEDFI; listed as Homo sapiens) [compound 200],NSCLCother
4,349 (IYMTTGVLL; listed as Homo sapiens) [compound 349],"GC, NSCLCadeno"
5,93 (TDWSPPPVEF; listed as Homo sapiens) [compound 93],NSCLCsquam
6,65 (EYLLMIFKLV; listed as Homo sapiens) [compound 65],"NSCLCadeno, NSCLCsquam, PRCA"
7,365 (KDLMKAYLF; listed as Homo sapiens) [compound 365],"GC, SCLC"
8,134 (IYSSQLPSF; listed as Homo sapiens) [compound 134],CLL
9,30 (RQAYSVYAF; listed as Homo sapiens) [compound 30],PRCA
10,162 (YYIGIVEEY; listed as Homo sapiens) [compound 162],"HCC, NSCLCsquam"
11,222 (HYHAESFLF; listed as Homo sapiens) [compound 222],OSCAR
12,228 (VYLRIGGF; listed as Homo sapiens) [compound 228],"MEL, NSCLCadeno, NSCLCsquam, OSCAR, PRCA, RCC, SCLC, UBC"
13,182 (AQGSGTVTF; listed as Homo sapiens) [compound 182],CLL
14,259 (FFLFIPFF; listed as Homo sapiens) [compound 259],NSCLCadeno
15,213 (FYNRLTKLF; listed as Homo sapiens) [compound 213],NSCLCadeno
16,280 (TIYSLEMKMSF; listed as Homo sapiens) [compound 280],"NSCLCother, NSCLCsquam"
17,136 (YLKSVQLF; listed as Homo sapiens) [compound 136],NSCLCsquam
18,282 (ASYQQSTSSFF; listed as Homo sapiens) [compound 282],NSCLCadeno
19,294 (KMGRIVDYF; listed as Homo sapiens) [compound 294],"CCC, GBC, GC"
20,206 (EVVHTVFLF; listed as Homo sapiens) [compound 206],"GBC, MEL, NSCLCadeno, NSCLCsquam, PRCA, SCLC"
21,191 (MSYSCGLPSL; listed as Homo sapiens) [compound 191],"GC, HCC"
22,378 (VYAVISNIL; listed as Homo sapiens) [compound 378],"GBM, NHL, NSCLCadeno, SCLC"
23,100 (KVWSDVTPLTF; listed as Homo sapiens) [compound 100],"CCC, NSCLCsquam, PACA"
